# Results taken from PubChem BioAssay AID1347076 (National Center for Advancing Translational Sciences (NCATS), 2019).
# The whole screen tested about 400,000 compounds, of which about 13,000 (3.2%) were called active. Inconclusive means that the source gave no clear call. Such entries were picked first, then a sample of the others. Calls come from the whole dose curve; as a rule, active = well fitted cell-killing curve with a large enough effect; inconclusive = small, poorly fitted or top-dose-only effect, or effect the other way; inactive = flat fitted curve, though single readings scatter. Potencies beside an inconclusive call are fits to weak or partial responses and may not hold up.
# Test: qHTS assay for MDR1-selective chemotherapeutics: Primary screen using the drug-selected MDR subline cells KB-V1; note: nearly all actives have a fitted effect of over 60% in size
# Settings: KB-V1 MDR cells viability, CellTiter-Glo, 72 h; activity change, negative = cytotoxicity: at 46.1 µM (top of the series)
# How it was run: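 Compound-treated KB-V1 multidrug-resistant cells, 72 h, 37 degrees C; viability by CellTiter-Glo. Fitted qHTS curves give the values.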
# % is set by controls: 0 for no effect and ±100 for the full control effect; potency is the fitted concentration of half-maximal effect.
Compound,Potency,"activity change, negative = cytotoxicity"
COc1cccc(CN(C)C(=O)C2CSC3(C)CCC(=O)N23)c1OC (stereo not drawn),"inconclusive: 16.4 µM [cytotoxic, partial curve]",–
N/C(=N\NS(=O)(=O)c1cc(C(F)(F)F)cc(C(F)(F)F)c1)c1ccccn1,"inconclusive: 29.1 µM [cytotoxic, single point]",–
Cc1cc(C(=O)Nc2cccc(-c3ccc(N4CCOCC4)nn3)c2)ccc1[N+](=O)[O-],"inconclusive: 23.1 µM [cytotoxic, single point]",–
O=C(Nc1cccc(F)c1)c1ccccc1,inactive,–
CCOCCCN1C(=O)CN(C2CCC(C)CC2)C(=O)C1c1ccc(C)cc1 (stereo not drawn),"inconclusive: 2.31 µM [cytotoxic, full curve]",–
C[C@@]12C(=O)Nc3ccc(Br)cc3C(=O)N1[C@H]1c3ccccc3OC[C@@H]1[C@@H]2c1ccccc1,–,inconclusive: 16.4%
CN1CCN(C(=O)c2ccc3c(c2)N(Cc2ccc(F)cc2)C(=O)c2ccccc2S3=O)CC1 (stereo not drawn),inactive,–
CCOC(=O)Cn1c(S(=O)(=O)Cc2cccc(F)c2)nc(-c2ccccc2)c1-c1ccccc1,active: 20.6 µM,–
CCNC(=S)NNC(=O)c1cc(-c2cccc(OC)c2)nc2ccccc12,inactive,–
Fc1ccccc1COc1ccc(/C=N/NC(=S)NCc2ccccc2)cc1,inactive,–
CC(=O)c1ccc(NC(=O)CSc2nnc(-c3ccncc3)o2)cc1,"inconclusive: 16.4 µM [rising, partial curve, poor fit]",–
O=C1Nc2ccccc2-n2nnnc2C1N1CCN(c2cccc(C(F)(F)F)n2)CC1 (stereo not drawn),"inconclusive: 20.6 µM [cytotoxic, partial curve, poor fit]",–
Brc1cccc(-c2nnc(SCc3ccon3)n2-c2ccccc2)c1,"inconclusive: 20.6 µM [cytotoxic, partial curve, poor fit]",–
COc1ccc(C(=O)N2CCN(c3ccc([N+](=O)[O-])c(NCCc4ccc(OC)c(OC)c4)c3)CC2)cc1,"inconclusive: 0.58 µM [cytotoxic, full curve]",–
CN(C)c1cc[n+](CC(=O)Nc2ccc([N+](=O)[O-])cc2Cl)cc1,"inconclusive: 14.6 µM [rising, single point]",–
CC1(C(=O)NS(=O)(=O)c2cccc(F)c2)CCN1C(=O)Cc1cccs1 (stereo not drawn),inactive,–
CC[n+]1c(/C=C(\C)OC)sc2ccccc21,inactive,–
CCCC(=O)Nc1ccc(Cl)c(NC(=O)c2ccc(Br)o2)c1,active: 20.6 µM,–
CC(=O)CSc1nnc(-c2ccc(S(=O)(=O)N3CCOCC3)cc2)n1C,"inconclusive: 25.9 µM [rising, single point]",–
CCOC(=O)Cn1c(S(=O)(=O)Cc2ccc(Cl)cc2)nc(-c2ccccc2)c1-c1ccccc1,active: 7.31 µM,–
Nc1nc2nccc(-c3ccc(Cl)cc3)n2n1,"inconclusive: 25.9 µM [cytotoxic, single point]",–
COc1ccc(CCNc2oc(COc3cccc(C)c3)nc2C#N)cc1OC,inactive,–
O=C(NNC(=O)C1CCCCC1)c1cnccn1,"inconclusive: 18.4 µM [cytotoxic, single point]",–

# Copied from the list.
# N/C(=N\NS(=O)(=O)c1cc(C(F)(F)F)cc(C(F)(F)F)c1)c1ccccn1 – Potency: inconclusive: 29.1 µM [cytotoxic, single point]
# COc1ccc(C(=O)N2CCN(c3ccc([N+](=O)[O-])c(NCCc4ccc(OC)c(OC)c4)c3)CC2)cc1 – Potency: inconclusive: 0.58 µM [cytotoxic, full curve]

# (listing goes on)

Compound,Potency,"activity change, negative = cytotoxicity"
CNc1nc(Nc2ccc(C)c(Cl)c2)nc(N)c1[N+](=O)[O-],"inconclusive: 0.0073 µM [cytotoxic, full curve, poor fit]",–
Cc1cc(C(F)F)n2ncc(C(=O)NC3CCCCCC3)c2n1,inactive,–
CC1CCc2nc3ccccc3c(C(=O)OCC(=O)N3CCc4ccccc43)c2C1 (stereo not drawn),active: 2.06 µM,–
C/C(N)=C(/C#N)C(=O)CSc1nnnn1-c1ccc(C)cc1C,"inconclusive: 14.6 µM [cytotoxic, partial curve, poor fit]",–
CN(C(=O)COC(=O)/C=C/c1cccc([N+](=O)[O-])c1)C1CCS(=O)(=O)C1 (stereo not drawn),inactive,–
CCOC(=O)c1c(C)oc2ccc(OCC(N)=O)cc12,"inconclusive: 29.1 µM [cytotoxic, partial curve, poor fit]",–
CC(=O)c1cccc(-n2nnnc2SCC(=O)N2CCCC2)c1,inactive,–
O=C(NCc1ccccc1Cl)C1CCCN(C(=O)c2cnn(-c3ccc(F)cc3)c2-n2cccc2)C1 (stereo not drawn),active: 16.4 µM,–
Cn1c(C(=O)Nc2ccc3c(c2)OCO3)cc2sccc21,"inconclusive: 20.6 µM [cytotoxic, single point]",–
Cc1onc(-c2c(F)cccc2Cl)c1C(=O)Nc1cccc(S(=O)(=O)N2CCOCC2)c1,"inconclusive: 32.6 µM [cytotoxic, single point]",–
COC(=O)c1cc2c(ccn2-c2ccc(F)cc2)n1C(C)C,inactive,–
O=C(c1ccccc1F)N1CCN(Cc2cccc(Cl)c2)CC1,active: 20.6 µM,–
COc1cc(CO)ccc1OCC(=O)N1CCc2ccccc21,inactive,–
COc1cc(C(C)=O)ccc1OCC(=O)OC(C)C(=O)c1ccc(F)cc1 (stereo not drawn),inactive,–
CNCc1nc(-c2ccc[nH]2)c2cc(Cl)ccc2n1,"inconclusive: 29.1 µM [cytotoxic, single point]",–
C#CCOCCOCCOCCNc1nc(N2CCN(C(=O)CCCCCCCCCCNC(=O)[C@H]([C@@H](C)CC)n3cc(CCCCN=C(N)N)nn3)CC2)nc(N2CCN(C(=O)CCCCCCCCCCNC(=O)[C@H](CO)n3cc(CCCCCN)nn3)CC2)n1,"inconclusive: 29.1 µM [cytotoxic, single point]",–
Cc1cc(=O)nc2c3ccccc3n(C(C)C(=O)Nc3cc(F)ccc3F)n12 (stereo not drawn),"inconclusive: 3.66 µM [cytotoxic, partial curve]",–
CCCCOC(=O)CSC1=C(C#N)C(c2ccccc2OCC)C(C#N)C(=O)N1 (stereo not drawn),"inconclusive: 14.6 µM [cytotoxic, partial curve, poor fit]",–
Cc1nc2c(-c3ccccc3)c(C)nn2c(C)c1CCC(=O)NCCc1ccccc1,inactive,–
Cc1ccc(C(=O)CC(=O)c2ccccc2)cc1,inactive,–
Cc1ccc([N+](=O)[O-])cc1NC(=S)NC(=O)c1c(Cl)cnn1C,"inconclusive: 0.326 µM [rising, full curve]",–
C=CCN(CC=C)S(=O)(=O)c1ccc(C(=O)Nc2sc3c(c2C(N)=O)CCCCC3)cc1,"inconclusive: 13 µM [cytotoxic, partial curve, poor fit]",–
CCOc1ncccc1C(=O)N(CC)CC(=O)NCc1ccc(Cl)cc1,"inconclusive: 20.6 µM [cytotoxic, single point]",–

Compound,Potency,"activity change, negative = cytotoxicity"
Cc1ccccc1C(=O)N/N=C/c1ccccn1,active: 20.6 µM,–
CCOc1ccc(NC(=O)CN(C)C(=O)Cc2c(C)nc3ccccc3c2C)cc1OCC,"inconclusive: 23.1 µM [cytotoxic, partial curve, poor fit]",–
Cc1ccc(N2CCN(C(=O)c3c(C)oc4ncnc(N5CCCCC5)c34)CC2)c(C)c1,inactive,–
O=C(NCc1cccnc1)C1CCN(c2ccc(S(=O)(=O)N3CCOCC3)cc2Cl)CC1,inactive,–
C=C(C)Cn1c(N2CCC(Cc3ccccc3)CC2)nc2c1c(=O)[nH]c(=O)n2C,"inconclusive: 16.4 µM [cytotoxic, partial curve]",–
COc1cc(C2C=C(C34CC5CC(CC(C5)C3)C4)NC(=S)N2)cc(OC)c1OC (stereo not drawn),"inconclusive: 14.6 µM [cytotoxic, partial curve, poor fit]",–
COc1ccc(NC(=O)CN(C)CC(=O)N(C)C2(C#N)CCC(C)CC2)cc1 (stereo not drawn),inactive,–
O=S(=O)(Nc1nc2ccccc2nc1Cl)c1cccc(C(F)(F)F)c1,inactive,–
COc1ccc(OC)c(NC(=O)c2cccnc2Sc2cc(C)ccc2C)c1,"inconclusive: 8.2 µM [cytotoxic, partial curve]",–
O=C(Nc1ccc(-c2csc(Nc3cccc(C(F)(F)F)c3)n2)cc1)c1cccc(C(F)(F)F)c1,"inconclusive: 29.1 µM [cytotoxic, single point]",–
Cc1noc(C)c1NC(=O)N(C)C[C@@H]1Oc2ccc(NC(=O)CCC(F)(F)F)cc2CC(=O)N([C@@H](C)CO)C[C@@H]1C,"inconclusive: 9.2 µM [rising, partial curve]",–
CC1Cc2ccccc2N1C(=O)c1ccc2c(c1)OCO2 (stereo not drawn),"inconclusive: 0.092 µM [rising, full curve]",–
CCN(CC)S(=O)(=O)c1cccc(-c2n[nH]c(=S)n2/N=C/c2ccc(Br)cc2)c1,"inconclusive: 20.6 µM [cytotoxic, partial curve]",–
CCOc1cc(CNc2ccc(N3CCN(C(C)=O)CC3)cc2)cc(Br)c1OC,"inconclusive: 6.51 µM [cytotoxic, partial curve]",–
CC(C)c1ccc(N(C(=O)c2snc(C(N)=O)c2N)C(C(=O)NC2CCCC2)c2ccncc2)cc1 (stereo not drawn),"inconclusive: 9.2 µM [cytotoxic, partial curve, poor fit]",–
Cn1c(CSc2nnc(SCc3ccccc3)s2)nc2ccccc21,active: 16.4 µM,–
CCCCOc1ccc(C(=O)NCC(=O)NCCCn2nc(C)cc2C)cc1,"inconclusive: 29.1 µM [cytotoxic, single point]",–
Cc1ccc(/C=N/NC(=O)c2cc3c(ccc4ccccc43)o2)cc1[N+](=O)[O-],inactive,–
C/C(=N\NC(=O)c1ccc(F)cc1)c1ccc(N2CCOCC2)cc1,inactive,–
O=C(NCc1ccccc1)C1CCCN(S(=O)(=O)c2ccc(Br)cc2)C1 (stereo not drawn),"inconclusive: 11.6 µM [cytotoxic, partial curve]",–
CCOC(=O)c1ccccc1NC(=O)CN(c1ccccc1)S(=O)(=O)N(C)C,"inconclusive: 16.4 µM [cytotoxic, partial curve]",–
COc1cccc(CNC(=O)CCC2CCCN(C(=O)Cc3ccccc3F)C2)c1 (stereo not drawn),"inconclusive: 16.4 µM [cytotoxic, single point]",–
